# In patent publication US11702450B2, “Proteogenomic-based method for identifying tumor-specific antigens” (UNIVERSITÉ DE MONTRÉAL, priority 2018, dated 2023):
# Tested on: EL4 cells
# Assay: TSA copy number per cell by PRM MS with 13C-labelled synthetic peptides
# Design: species or system mouse
# Settings: EL4 cell population used for rechallenge (day 150)
row,Sequence,TSA copy number per cell
1,VNYLHRNV,> 500 copies per cell
2,VNYIHRNV,no longer detected
